Laboratory results taken from the supplement of paper PMC12889115.
The list shows a part of the results. Values are raw readings; no control value is given beside them.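 In the initial screen, polymyxin B was used at a concentration that permeabilizes Salmonella's outer membrane but not its inner membrane. Maximum growth was set by DMSO wells with or without polymyxin B. Since plates varied, data were ranked per plate, and compounds giving the lowest OD600 advanced as hits.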

System: Salmonella enterica serovar Typhimurium SL1344
Experiment: bacterial growth OD600 after 18 h with compound and polymyxin B; higher = more bacterial growth (less inhibition)
Conditions: 50 µM, Mueller-Hinton broth

Compound | bacterial growth OD600 (polymyxin B 0.75 µg/mL) | bacterial growth OD600 (polymyxin B 1 µg/mL)
Cc1ccccc1CCN1CCCC(CN(C)C(=O)c2cc[n+]([O-])cc2)C1 (centres undefined) | 0.812 | –
C[C@@H]1C[C@@H](C(=O)NCc2nc(NCCCc3ccccc3)c3ccccc3n2)NC(=S)N1 | 0.829 | –
COc1ccc(OC)c(CNC(=O)c2cc(NC(=O)C3CCCO3)c3c(c2)nc(C2CCC2)n3C)c1 (centres undefined) | 0.943 | –
CCS(=O)(=O)c1ncc(CN2CCN(C(C)=O)CC2)n1CCCc1ccccc1 | – | 0.777
Cc1nc(CN(C)C(=O)C2(N3C[C@@H](C)O[C@@H](C)C3)Cc3ccccc3C2)cs1 | 0.525 | –
CN(CCc1ccccn1)c1nncc(-c2ccccc2F)n1 | – | 0.919
O=C(CCn1cccn1)N1CCC(C2CCN(c3ncccn3)CC2)C1 (centres undefined) | 0.861 | –
Fc1ccc(CN2CCOc3ccc(CN4CCC(Oc5cccnc5)CC4)cc3C2)cc1F | 0.01 | –
COc1ccc(CN2CCC(Oc3ccccc3C(=O)N3CCCC3)CC2)c(F)c1 | 0.673 | –
COc1ccc(CN(C)C2CCCN(CCc3ccccc3)C2)cc1O (centres undefined) | 0.787 | –
COC(=O)CCCC(=O)NC1CCCN(c2ccc(C(F)(F)F)cn2)C1 (centres undefined) | – | 1.23
CCOC(=O)C1(CCc2ccccc2)CCCN(C(=O)c2scc3c2OCCO3)C1 (centres undefined) | – | 0.439
CCOc1ccccc1CN1CCCC(CO)(Cc2ccccc2F)C1 (centres undefined) | – | 0.961
Cc1cccc(NC(=O)CCC2CCN(C(=O)CCc3scnc3C)CC2)c1 | – | 0.956
COc1cccc(OCc2cc(C(=O)NC(C)c3c(C)n[nH]c3C)n[nH]2)c1 (centres undefined) | 0.909 | –
O=C(NCCN1Cc2ccccc2OC(c2ccsc2)C1)C(c1cccnc1)N1CCOCC1 (centres undefined) | 0.776 | –
O=C(CCC1CCN(C(=O)CCc2c[nH]c3ccccc23)CC1)NCC1CCCO1 (centres undefined) | – | 1.02
Cc1occc1C(=O)N(C)C(Cc1ccccc1)C1CCN(C(=O)/C=C/c2ccccc2)CC1 (centres undefined) | 0.161 | –
COc1ccc(C(NC(=O)Cn2nnnc2CN(C)C(C)C)c2ccncc2)cc1 (centres undefined) | 0.877 | –
COc1ncccc1C(=O)NCc1cccnc1-n1cnc2ccccc21 | – | 0.845
COc1ccc2c(C)nc(N3CCC(NC(C)CCCC(C)(C)O)CC3)nc2c1 (centres undefined) | 0.807 | –
COc1ccc(CC2(CCC(=O)N3CCCC(C(=O)c4nccn4C)C3)CCC(=O)N2)c(F)c1 (centres undefined) | 0.721 | –
CSc1ccc(CC2(CCC(=O)NCCC(c3ccc(F)cc3)c3ccco3)CCC(=O)N2)cc1 (centres undefined) | 0.309 | –
CCN(CC1CCN(CCc2ccccc2C)CC1)C(=O)c1cc(C)nc(C)n1 | – | 1.27
CC(C)CCN1CC[C@@H](N2CCN(CCc3ccccc3)CC2)[C@H](O)C1 | 0.896 | –
COc1ccc(F)c(CN2CCCC3(CCN(C(=O)C(C)C)C3)C2=O)c1 (centres undefined) | – | 0.877
Cc1nc(N2CCC(C(=O)NC(C)Cc3ccsc3)CC2)nc2cc(S(C)(=O)=O)ccc12 (centres undefined) | 0.827 | –
O=C(C1CCCN(C2CCN(C3Cc4ccccc4C3)CC2)C1)N1CCCC1 (centres undefined) | – | 0.905
Cc1ccccc1CCC1CCCN(C(=O)CCn2cncn2)C1 (centres undefined) | 0.847 | –

Among those listed so far, 3 have a thiophene ring, fused or not.
Compound | bacterial growth OD600 (polymyxin B 0.75 µg/mL) | bacterial growth OD600 (polymyxin B 1 µg/mL)
CCOC(=O)C1(CCc2ccccc2)CCCN(C(=O)c2scc3c2OCCO3)C1 (centres undefined) | – | 0.439
O=C(NCCN1Cc2ccccc2OC(c2ccsc2)C1)C(c1cccnc1)N1CCOCC1 (centres undefined) | 0.776 | –
Cc1nc(N2CCC(C(=O)NC(C)Cc3ccsc3)CC2)nc2cc(S(C)(=O)=O)ccc12 (centres undefined) | 0.827 | –
